Mtb glucose medium: 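Whole-cell growth test on Mycobacterium tuberculosis, read after 3 days in glucose-containing 7H9 medium; the read-out is not stated. Tested at 50 µM. Higher reads as more growth inhibition (inferred: compounds with an IC50 in retests scored well above the rest). About 69,000 compounds were tested under these conditions; 1.1% (about 760) showed 50% or more at least once.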
Mtb cholesterol medium: 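Growth of Mycobacterium tuberculosis over 4 days (cholesterol / DPPC medium with tyloxapol); the read-out is not stated. Tested at 50 µM. Higher reads as more growth inhibition (inferred: compounds with an IC50 in retests scored well above the rest). Size under these conditions: about 69,000 compounds, about 370 of them at 50% or above in at least one test.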

Each number is a percent effect as filed.
The record does not define 0% and 100%; most values in the screen are far below 50% and negative numbers occur (in some assays of this library far below -100).
Compounds were drawn at random from those tested, without regard to their results.
Two or more numbers in one place are separate tests of the same structure; such repeats can differ widely.

CCCc1nc(CN2CCN(Cc3noc(CCC)n3)CC2)no1 gave Mtb glucose medium: -9.343%; Mtb cholesterol medium: -1.321%.
CC(C)CN(Cc1ccccn1)Cc1ccccc1C(=O)O gave Mtb glucose medium: -30.87%; Mtb cholesterol medium: -3.497%.
Cc1cccc(CN2CCc3ncnc(-c4ccsc4)c3CC2)n1.O=C(O)C(F)(F)F gave Mtb glucose medium: 18.77%; Mtb cholesterol medium: -17.06%.
COc1ccnc(N2CCN(C(=O)c3cnn(C)c3C3CC3)CC2)n1 gave Mtb glucose medium: 26.29%; Mtb cholesterol medium: 4.949%.
CN(C)c1cc(CNC(=O)Nc2nnc(C3CC3)s2)ccn1 gave Mtb glucose medium: -9.952%; Mtb cholesterol medium: -7.894%.
CCCC(=O)N1CCC(C(=O)NCCN2CCC(C)CC2)CC1 gave Mtb glucose medium: -29.22% and -12.7%; Mtb cholesterol medium: -14.46%.
CC1c2ccsc2CCN1Cc1cc2c(cc1O)OCO2 (configuration not stated) gave Mtb glucose medium: 10.31%; Mtb cholesterol medium: -6.568%.
CC(=O)N1CCC(NC2(Cc3cc(CC(C)C)on3)COC2)CC1 gave Mtb glucose medium: -7.49% and -8.573%; Mtb cholesterol medium: -12.98%.
Cn1cccc1C(=O)N1CCC2(CCCN(CC3CC3)C2=O)C1 (configuration not stated) gave Mtb glucose medium: 16.36%; Mtb cholesterol medium: 8.313% and -3.722%.
CCOc1ncccc1C(=O)N1CCN(C)C2(CCN(C)CC2)C1 gave Mtb glucose medium: 6.972%; Mtb cholesterol medium: 0.361%.
O=C(NC1(c2nc(C3CC3)no2)CCCCC1)c1cccnc1O gave Mtb glucose medium: -5.072%; Mtb cholesterol medium: -0.251%.
Cc1ccc(NC(=O)CNC(C)CN2CCCCC2)c(F)c1 (configuration not stated) gave Mtb glucose medium: -17.93%; Mtb cholesterol medium: -27.87%.
N#Cc1cccc(CN2CCCC2c2ccc[nH]2)c1 (configuration not stated) gave Mtb glucose medium: -14.17% and 13.85%; Mtb cholesterol medium: -24.35%.
NC(=O)C(NCCc1ccc(Cl)s1)c1ccccc1 (configuration not stated) gave Mtb glucose medium: 5.717% and 12.58%; Mtb cholesterol medium: 2.512%.
[H][C@]12CN(CC3CC3)C(=O)[C@@]1([H])CN(c1ncc(F)cn1)C2 gave Mtb glucose medium: 14.84% and -15.38%; Mtb cholesterol medium: 28.41%.
O=C(NCc1nc[nH]n1)c1cc(COc2ccccc2F)[nH]n1 gave Mtb glucose medium: 3.849% and -26.94%; Mtb cholesterol medium: -30.9%.
O=C(CC1COCCN1S(=O)(=O)c1ccccc1)NCc1ccccn1 (configuration not stated) gave Mtb glucose medium: -4.784% and -1.057%; Mtb cholesterol medium: 17.21%.
CC(Cn1ccnc1)NC1CCN(Cc2cccc(O)c2)CC1 (configuration not stated) gave Mtb glucose medium: 5.996%; Mtb cholesterol medium: 4.572% and 6.134%.
Cn1ccnc1CN1CCCC1c1noc(C2CC2)n1 (configuration not stated) gave Mtb glucose medium: 9.233%; Mtb cholesterol medium: 1.156%.
CC(NCC(=O)Nc1ccc(N2CCCCCC2)cc1)c1cccs1 (configuration not stated) gave Mtb glucose medium: -1.006%; Mtb cholesterol medium: 25.17%.
CCC(CC)CN1CCC2(CCC(=O)N2OCc2ccccc2F)CC1 gave Mtb glucose medium: -25.81%; Mtb cholesterol medium: -0.2246%.
CN(Cc1ccc(N(C)C)cc1)C(=O)NCc1nnc2n1CCC2 gave Mtb glucose medium: 3.82% and 30.42%; Mtb cholesterol medium: -1.893%.
COC1CCN(c2ccc(NC(=O)Cn3cccn3)cc2)CC1 gave Mtb glucose medium: -4.54%; Mtb cholesterol medium: -15.79%.
COc1ncc(C2(O)CCN(Cc3ccc(F)c(F)c3)CC2)c(OC)n1.Cl gave Mtb glucose medium: 2.536%; Mtb cholesterol medium: 3.041%.
O=C(CCNc1ncc2c(n1)CCN2c1ccccc1)N1CCCC1 gave Mtb glucose medium: 15.12% and 2.017%; Mtb cholesterol medium: -14.82%.
CC1c2ncc(COCC3CCCC3)n2CCN1S(=O)(=O)N(C)C (configuration not stated) gave Mtb glucose medium: -8.214% and -8.148%; Mtb cholesterol medium: 9.949%.
O=C(c1ccc2nncn2c1)N1CCSC2(CCCCC2)C1 gave Mtb glucose medium: -22.16%; Mtb cholesterol medium: -22.76%.
CNC(=O)CN1CCC(CN(C)CCSc2ccccc2)CC1 gave Mtb glucose medium: -1.581%; Mtb cholesterol medium: -21.48%.
O=C(CCC(=O)N1CCNC(=O)C1c1cccc(F)c1)NC1CCCC1 (configuration not stated) gave Mtb glucose medium: -6.688% and 3.096%; Mtb cholesterol medium: 4.284%.
Cc1c(CCC(=O)Nc2ccc(Br)cn2)cnn1C gave Mtb glucose medium: 12.49%; Mtb cholesterol medium: 18.51%.
O=C(Cn1cccnc1=O)NC(Cc1ccsc1)c1ccccn1 (configuration not stated) gave Mtb glucose medium: 2.961%; Mtb cholesterol medium: -2.566%.
CCc1ccc(CN(C)C(=O)c2ccc(CSc3nnc[nH]3)o2)nc1 gave Mtb glucose medium: -10.09% and 0.01054%; Mtb cholesterol medium: -0.2548%.
COc1nc2ccn(CCNc3cc(C)ccn3)c(=O)c2cc1C#N gave Mtb glucose medium: 18.93%; Mtb cholesterol medium: -0.5781%.
CCOC1CC2(CCN(C(=O)COC)CC2)c2cc(C)ccc21 (configuration not stated) gave Mtb glucose medium: -20.65% and 0.4466%; Mtb cholesterol medium: -10.76%.
[H][C@@]12CCCC[C@]1([H])C(=O)N(c1cnn(Cc3cccc(F)c3)c1)C2=O gave Mtb glucose medium: 32.08%; Mtb cholesterol medium: 3.768%.
NC(=O)c1ccc(CN2CCC(N3CCCC3)CC2)cc1 gave Mtb glucose medium: 5.151%; Mtb cholesterol medium: 1.403%.
CN1CCN(C(=O)c2cc3sccc3n2Cc2ccc(Cl)cc2)CC1 gave Mtb glucose medium: 30.97% and 33.01%; Mtb cholesterol medium: 29.19%.

Once more, the final 4:

CCOC1CC2(CCN(C(=O)COC)CC2)c2cc(C)ccc21 (configuration not stated) gave Mtb glucose medium: -20.65% and 0.4466%; Mtb cholesterol medium: -10.76%.
[H][C@@]12CCCC[C@]1([H])C(=O)N(c1cnn(Cc3cccc(F)c3)c1)C2=O gave Mtb glucose medium: 32.08%; Mtb cholesterol medium: 3.768%.
NC(=O)c1ccc(CN2CCC(N3CCCC3)CC2)cc1 gave Mtb glucose medium: 5.151%; Mtb cholesterol medium: 1.403%.
CN1CCN(C(=O)c2cc3sccc3n2Cc2ccc(Cl)cc2)CC1 gave Mtb glucose medium: 30.97% and 33.01%; Mtb cholesterol medium: 29.19%.

From ChEMBL document CHEMBL3988442, “University of Dundee, Small-Polar-MMV Screening Library” (2021).